Test results reported in ChEMBL document CHEMBL4184340, “Fragment-Based Discovery of a Potent, Orally Bioavailable Inhibitor That Modulates the Phosphorylation and Catalytic Activity of ERK1/2” (J Med Chem, 2018).

How the values were obtained:
in vivo [1] = conditions: Balb/c, mouse, iv, 0.5 mg/kg
in vivo [2] = conditions: Balb/c, mouse, po, 5 mg/kg
in vivo [3] = conditions: Balb/c, mouse, iv, 0.5 mg/kg; remark: listed apart in the source
in vivo [4] = conditions: Balb/c, mouse, po, 5 mg/kg; remark: listed apart in the source
in vivo [5] = conditions: Balb/c, mouse, po, 5 mg/kg; remark: listed apart in the source
in vitro = conditions: human, Caco-2

Structure (SMILES)	clearance at 24 h (in vivo [1])	half-life at 24 h (in vivo [2])	Vd at 24 h (in vivo [3])	AUC at 24 h (in vivo [4])	bioavailability at 24 h (in vivo [5])	Papp at 1 h, 10 µM (in vitro)
COc1cccc([C@@H](CO)NC(=O)CN2Cc3ccc(-c4nc(NC5CCOCC5)ncc4Cl)cc3C2=O)c1	40 mL/min/kg	3 h	1 L/kg	350 ng·h/mL	20%	2.2 ×10⁻⁶ cm/s
COc1cccc([C@@H](C)NC(=O)CN2Cc3ccc(-c4nc(NC5CCOCC5)ncc4Cl)cc3C2=O)c1	6 mL/min/kg	2 h	0.08 L/kg	1100 ng·h/mL	8%	15 ×10⁻⁶ cm/s
